Assay results taken from paper doi:10.1101/559146.
These are yes or no findings as the source states them, for the method shown. In cells and extracts the contact can be indirect. Some binding calls cover weakened binding; strength is not graded here. Tags and fused reporters may be left off the sequences shown.

The chains behind the UniProt entries cited, without tags or fusion partners. Residues count along the entry.
UniProt P25443, residues 1-73: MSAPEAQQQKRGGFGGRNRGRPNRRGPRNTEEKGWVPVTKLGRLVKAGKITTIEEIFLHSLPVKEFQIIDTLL

Molecular target: T1, Tsr4-TEV-13myc (S. cerevisiae) (UniProt P25040)
T1 sequence: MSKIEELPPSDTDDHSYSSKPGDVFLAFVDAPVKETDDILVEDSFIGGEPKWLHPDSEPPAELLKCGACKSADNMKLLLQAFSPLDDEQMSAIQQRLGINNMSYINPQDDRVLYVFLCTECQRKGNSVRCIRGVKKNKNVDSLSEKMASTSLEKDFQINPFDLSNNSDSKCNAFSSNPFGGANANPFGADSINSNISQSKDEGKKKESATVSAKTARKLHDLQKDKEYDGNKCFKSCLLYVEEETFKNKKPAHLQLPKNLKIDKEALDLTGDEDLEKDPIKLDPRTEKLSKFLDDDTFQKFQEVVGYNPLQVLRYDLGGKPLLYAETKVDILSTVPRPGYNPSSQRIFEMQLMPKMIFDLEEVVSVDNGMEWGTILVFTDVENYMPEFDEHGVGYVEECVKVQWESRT
Assay: co-IP

Question: “Rps2(1-73)-GFP (from UniProt P25443 1-73) (domain or fragment)” was tested. Which binding did it give?
Answer: binds
